Here are results for twelve substances from publication PMC10312975.

Amino acid sequences for entries named in this document (tags omitted).
UniProt O60826: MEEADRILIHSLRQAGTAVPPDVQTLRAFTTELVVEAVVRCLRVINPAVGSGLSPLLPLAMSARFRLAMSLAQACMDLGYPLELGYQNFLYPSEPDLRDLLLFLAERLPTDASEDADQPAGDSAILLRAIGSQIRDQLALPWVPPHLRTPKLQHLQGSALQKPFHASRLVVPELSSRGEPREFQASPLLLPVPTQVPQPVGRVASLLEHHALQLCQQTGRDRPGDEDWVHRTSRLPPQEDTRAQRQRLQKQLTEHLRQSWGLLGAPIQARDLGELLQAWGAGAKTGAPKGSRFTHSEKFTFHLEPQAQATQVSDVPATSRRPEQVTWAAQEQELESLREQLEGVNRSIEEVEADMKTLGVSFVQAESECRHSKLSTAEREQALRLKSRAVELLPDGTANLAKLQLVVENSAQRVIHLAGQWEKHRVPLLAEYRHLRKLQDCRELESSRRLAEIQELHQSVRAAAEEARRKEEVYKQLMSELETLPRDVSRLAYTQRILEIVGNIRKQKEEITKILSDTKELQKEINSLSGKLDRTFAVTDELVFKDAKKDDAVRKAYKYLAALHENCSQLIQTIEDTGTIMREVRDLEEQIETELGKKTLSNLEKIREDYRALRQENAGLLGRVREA
UniProt Q567U6: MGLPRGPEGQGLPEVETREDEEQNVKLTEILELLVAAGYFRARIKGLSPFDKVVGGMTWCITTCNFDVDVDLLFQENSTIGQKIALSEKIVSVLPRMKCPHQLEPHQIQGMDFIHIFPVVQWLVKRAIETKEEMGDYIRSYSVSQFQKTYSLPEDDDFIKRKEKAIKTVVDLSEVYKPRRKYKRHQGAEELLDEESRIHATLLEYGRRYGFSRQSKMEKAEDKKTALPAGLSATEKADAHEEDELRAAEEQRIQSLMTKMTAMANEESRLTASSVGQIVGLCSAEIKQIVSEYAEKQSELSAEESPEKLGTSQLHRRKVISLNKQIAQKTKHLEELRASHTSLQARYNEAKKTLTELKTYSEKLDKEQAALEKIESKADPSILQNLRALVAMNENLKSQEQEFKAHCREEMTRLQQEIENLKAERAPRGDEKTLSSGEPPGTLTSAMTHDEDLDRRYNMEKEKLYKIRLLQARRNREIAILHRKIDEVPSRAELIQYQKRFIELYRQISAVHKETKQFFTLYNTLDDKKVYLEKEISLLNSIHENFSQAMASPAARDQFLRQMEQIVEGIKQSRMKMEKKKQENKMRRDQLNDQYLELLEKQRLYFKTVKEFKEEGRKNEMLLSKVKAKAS
UniProt Q9H0A8: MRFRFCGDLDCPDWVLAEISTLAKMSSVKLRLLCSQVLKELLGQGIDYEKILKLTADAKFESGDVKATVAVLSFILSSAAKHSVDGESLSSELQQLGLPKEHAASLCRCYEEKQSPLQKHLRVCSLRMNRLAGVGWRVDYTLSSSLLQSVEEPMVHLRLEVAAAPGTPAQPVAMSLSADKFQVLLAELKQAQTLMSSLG
UniProt Q9GZQ3: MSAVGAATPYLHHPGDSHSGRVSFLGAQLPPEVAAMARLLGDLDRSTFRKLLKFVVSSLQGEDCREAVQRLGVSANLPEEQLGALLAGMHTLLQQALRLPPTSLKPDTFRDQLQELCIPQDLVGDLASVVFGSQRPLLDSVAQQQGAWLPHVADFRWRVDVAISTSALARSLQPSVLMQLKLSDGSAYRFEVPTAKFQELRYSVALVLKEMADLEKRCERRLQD
UniProt Q7Z4G1: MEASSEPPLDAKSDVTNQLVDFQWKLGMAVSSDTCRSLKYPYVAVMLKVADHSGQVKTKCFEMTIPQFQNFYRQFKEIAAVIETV
UniProt Q86VX2: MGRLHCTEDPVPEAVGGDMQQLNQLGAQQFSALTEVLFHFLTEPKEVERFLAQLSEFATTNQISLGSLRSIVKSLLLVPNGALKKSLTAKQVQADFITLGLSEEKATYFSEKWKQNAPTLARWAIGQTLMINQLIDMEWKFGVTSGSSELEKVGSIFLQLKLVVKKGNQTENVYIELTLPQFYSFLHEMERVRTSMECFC
UniProt Q9NX08: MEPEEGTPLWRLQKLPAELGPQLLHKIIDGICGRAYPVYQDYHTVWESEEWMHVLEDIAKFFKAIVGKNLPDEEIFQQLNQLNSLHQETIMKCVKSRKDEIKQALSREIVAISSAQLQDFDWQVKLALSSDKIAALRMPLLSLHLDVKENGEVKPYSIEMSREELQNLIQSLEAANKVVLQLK
UniProt Q9Y6G5: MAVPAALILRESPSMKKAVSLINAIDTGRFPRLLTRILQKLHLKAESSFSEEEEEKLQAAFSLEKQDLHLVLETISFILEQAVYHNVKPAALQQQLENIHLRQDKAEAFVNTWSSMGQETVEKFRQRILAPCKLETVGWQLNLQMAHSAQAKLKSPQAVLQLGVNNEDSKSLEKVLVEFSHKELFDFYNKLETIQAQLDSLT

These are yes or no findings as the source states them, for the method shown. In cells and extracts the contact can be indirect. These calls come from enrichment with a bait or labelling near it, and not all partners need be listed. For some assays here: No binding means not detected with the bait.

Assay [1] concerns the target HA-tagged COMMD1, stably expressed in COMMD1-deficient HeLa cells (human) (UniProt Q8N668). In words: affinity purification with mass spectrometry; HA immunoprecipitation from HeLa knockout cells rescued with HA-COMMD1 or HA-VPS26C, elution with HA peptide, blue native gel, bands at 720, 480 and 240 kDa analysed with iBAQ quantification.
Assay [2] addresses HA-tagged VPS26C, stably expressed in VPS26C-deficient HeLa cells (human) (UniProt O14972). The assay is described as above.
The target in assay [3] is HA-tagged VPS35L G325E, stably expressed in VPS35L knockout Huh-7 cells (human) (UniProt Q7Z3J2). The assay is described as follows: affinity purification with mass spectrometry; HA resin on Triton X-100 lysates of stable Huh-7 lines, elution with HA peptide, LC-MS/MS, compared with empty vector, triplicate samples.
Assay [4] addresses HA-tagged VPS35L G902E, stably expressed in VPS35L knockout Huh-7 cells (human) (UniProt Q7Z3J2). The description is as above.
In assay [5] the target is HA-tagged VPS35L S829E, stably expressed in VPS35L knockout Huh-7 cells (human) (UniProt Q7Z3J2). Described as above.
The target in assay [6] is HA-tagged VPS35L W6D, stably expressed in VPS35L knockout Huh-7 cells (human) (UniProt Q7Z3J2). Described as above.
In assay [7] the target is HA-tagged VPS35L wild type, stably expressed in VPS35L knockout Huh-7 cells (human) (UniProt Q7Z3J2). Described as above.

As for “CCDC22 (endogenous) (from UniProt O60826 1-627)”, the binding result in assay [1] was “binds”.

Consider “CCDC93 (endogenous) (from UniProt Q567U6 1-631)”, for which the binding entry in assay [1] is recorded as “binds”.

As for “COMMD4 (endogenous) (from UniProt Q9H0A8 1-199)”, the binding entry in assay [1] was “binds”.

As for “COMMD5 (endogenous) (from UniProt Q9GZQ3 1-224)”, the binding entry in assay [1] is given as “binds”.

In the case of “COMMD6 (endogenous) (from UniProt Q7Z4G1 1-85)”, in assay [1], the binding entry is reported as “binds”.

Take “COMMD7 (endogenous) (from UniProt Q86VX2 1-200)”: the binding entry in assay [1] was “binds”.

Take “COMMD8 (endogenous) (from UniProt Q9NX08 1-183)”: the binding result in assay [1] is listed as “binds”.

In the case of “COMMD9 (endogenous) (from UniProt Q9P000 1-198)”, in assay [2], the binding entry is “binds”.

As to “COMMD10 (endogenous) (from UniProt Q9Y6G5 1-202)”, the binding entry in assay [1] is recorded as “binds”.

“DENND10 (endogenous) (from UniProt Q8TCE6 1-357)”: the binding entry in assay [1] and in assay [2] was “binds” throughout.

As for “VPS26C (endogenous) (from UniProt O14972 1-297)”, the binding result is given as “no binding” in assay [3]; “binds” in assay [4]; “binds” in assay [5]; “binds” in assay [6]; “binds” in assay [7].

With “VPS26C (endogenous) (from UniProt O14972 1-297) (other; other documents disagree on this pair)”, in assay [1], the binding result is listed as “binds”.
